{
  "sequences": {"note": "By UniProt entry, the sequences of proteins in these tests, tags left out. Where a name states a change or a piece, a line headed by the entry shows the natural chain unless it says otherwise.", "UniProt P18054": "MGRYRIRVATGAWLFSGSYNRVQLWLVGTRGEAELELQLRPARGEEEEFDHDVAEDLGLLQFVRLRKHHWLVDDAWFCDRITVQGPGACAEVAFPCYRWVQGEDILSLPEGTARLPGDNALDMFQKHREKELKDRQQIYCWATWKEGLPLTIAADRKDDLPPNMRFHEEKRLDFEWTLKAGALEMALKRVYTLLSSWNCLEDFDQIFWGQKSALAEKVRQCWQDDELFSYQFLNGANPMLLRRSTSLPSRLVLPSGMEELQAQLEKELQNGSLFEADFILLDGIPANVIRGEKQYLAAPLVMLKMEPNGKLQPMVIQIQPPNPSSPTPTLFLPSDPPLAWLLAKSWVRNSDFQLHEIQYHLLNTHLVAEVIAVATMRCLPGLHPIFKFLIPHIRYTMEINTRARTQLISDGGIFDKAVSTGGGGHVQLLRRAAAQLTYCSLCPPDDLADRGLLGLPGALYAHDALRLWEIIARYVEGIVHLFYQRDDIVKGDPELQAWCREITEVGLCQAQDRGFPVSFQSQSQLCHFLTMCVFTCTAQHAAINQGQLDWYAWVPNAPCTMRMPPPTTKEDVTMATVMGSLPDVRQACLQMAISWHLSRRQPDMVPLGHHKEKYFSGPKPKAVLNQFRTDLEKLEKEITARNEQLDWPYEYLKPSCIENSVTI"},
  "source": "PubChem BioAssay AID1671190",
  "about": "(National Center for Advancing Translational Sciences (NCATS), 2021)",
  "note": "The whole screen tested about 580,000 compounds, of which about 6,100 (1.1%) were called active. Inconclusive means that the source gave no clear call. Such entries were picked first, then a sample of the others. Calls follow the shape of the dose curve; as a rule, active = well fitted inhibition curve with a large enough effect; inconclusive = small, poorly fitted or top-dose-only effect, or another doubt; inactive = no such curve, though single readings can be large or run the other way. A potency beside an inconclusive call is a rough fit, not a confirmed value. % is scaled to controls: 0 for no effect and ±100 for the full control effect; potency is read from the fitted curve at half-maximal effect.",
  "data": [
    {"molecular_target": "Polyunsaturated fatty acid lipoxygenase ALOX12 (Homo sapiens) (UniProt P18054)", "test": "Primary qHTS assay for inhibitors of human arachidonate 12S-lipoxygenase (ALOX12): Round 2", "conditions": "purified 12hLO, xylenol orange hydroperoxide absorbance; activity change, negative = inhibition: at 108 µM (top of the series) unless noted", "summary_of_the_method": "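Purified human 12hLO at 150 nM in 25 mM Hepes, 0.01% Triton X-100, pH 7.0, preincubated 15 min at room temperature with compound. Reaction started with 40 uM arachidonic acid, 30 min at room temperature. Hydroperoxide measured by Fe-xylenol orange, 573/405 nm absorbance ratio.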", "values": [
      {"smiles": "CNC(=O)N(O)C1N(/N=C/c2cc(Br)ccc2O)C(=S)SC1(C)C", "note": "(centres undefined)", "Potency": "inconclusive: 31.6 µM [inhibitor, single point]"},
      {"smiles": "CN(Cc1ccccc1)S(=O)(=O)c1ccc(NC(=S)NC(=O)C2CCCCC2)cc1", "Potency": "active: 17.8 µM"},
      {"smiles": "COC(=O)c1ccc(CSc2nc3ccccc3c(=O)n2CC(C)C)o1", "activity change, negative = inhibition": "inactive: 0%"},
      {"smiles": "CC(=O)Oc1ccc(/C=C(\\NC(=O)c2ccco2)C(=O)NCc2ccco2)cc1", "Potency": "inconclusive: 100 µM [inhibitor, single point]"},
      {"smiles": "N#C/C(=C\\c1ccccn1)c1nc2ccccc2s1", "Potency": "active: 31.6 µM"},
      {"smiles": "C=CC[n+]1ccc2ccccc2c1C", "Potency": "inconclusive: 44.7 µM [inhibitor, partial curve, poor fit]"},
      {"smiles": "COc1cccc(C(=O)N2CCN(c3cc(C(F)(F)F)ncn3)CC2)c1OC", "Potency": "inconclusive: 44.7 µM [inhibitor, partial curve, poor fit]"},
      {"smiles": "Cc1noc(C)c1-c1cncnc1-n1ccnc1", "Potency": "inconclusive: 44.7 µM [inhibitor, partial curve]"},
      {"smiles": "Cn1cccc1C(=O)N1C[C@@H](COCC2CC2)[C@H](c2ccccn2)C1", "Potency": "inconclusive: 31.6 µM [inhibitor, single point]"},
      {"smiles": "Cc1cccc(-c2nc(C#N)c(NCc3ccc4c(c3)OCO4)o2)c1", "Potency": "inconclusive: 35.5 µM [inhibitor, partial curve, poor fit]"},
      {"smiles": "O=C(O)CSCC(=O)Nc1ccc(-c2nc3ccccc3s2)cc1", "Potency": "inconclusive: 31.6 µM [inhibitor, single point]"},
      {"smiles": "Cc1ccsc1/C=N/n1c(COc2ccccc2)n[nH]c1=S", "Potency": "inconclusive: 44.7 µM [inhibitor, partial curve, poor fit]"},
      {"smiles": "CSc1ccc(CNc2ncc(-c3ccccc3)n2C)cc1", "Potency": "inconclusive: 4.47 µM [inhibitor, full curve]"},
      {"smiles": "CCOc1ccccc1NC(=O)c1cnc2ccccc2n1", "activity change, negative = inhibition": "inactive: -89%"},
      {"smiles": "Cc1cc(NC2CC(C)(C)NC(C)(C)C2)nc(C(C)C)n1", "activity change, negative = inhibition": "inactive: 54.7%"},
      {"smiles": "Cc1ccc(NC(=O)/C(C#N)=C/c2cc(C)n(-c3ccc(N4CCOCC4)c([N+](=O)[O-])c3)c2C)c(C)c1", "activity change, negative = inhibition": "inactive: -11%"},
      {"smiles": "O=C(COc1cccc(Br)c1)N/N=C1\\CCCc2ccccc21", "activity change, negative = inhibition": "inactive: 39.7%"},
      {"smiles": "O=C1NC[C@@H](Cc2ccc(O)cc2)N(CCCCC2CCCCC2)C1=O", "Potency": "inconclusive: 7.08 µM [inhibitor, full curve]"},
      {"smiles": "C=CCN(C(=O)Nc1ccc(Cl)cc1)C1CC(=O)N(c2ccc(OC)cc2)C1=O", "note": "(centres undefined)", "Potency": "inconclusive: 100 µM [inhibitor, single point]"},
      {"smiles": "O=C(c1ccc(NCc2ccncc2)cc1)N1CCCC2(CCNCC2)CC1", "Potency": "inconclusive: 8.91 µM [inhibitor, full curve]"},
      {"smiles": "COc1ccccc1C(=O)NC[C@H]1COCc2nc3cc(C)ccc3n21", "activity change, negative = inhibition": "inactive: 7.07% [at 176 µM]"},
      {"smiles": "Cn1ncc(N2CCC(C(=O)NCC3CCN(Cc4cccc(F)c4)CC3)C2)cc1=O", "note": "(centres undefined)", "Potency": "inconclusive: 10 µM [inhibitor, full curve, poor fit]"},
      {"smiles": "CCOC(=O)c1sc2nc(C(C)C)c3c(c2c1N)CCC3", "activity change, negative = inhibition": "inactive: 0.671%"},
      {"smiles": "c1ccc2sc(-c3cc(NCCN4CCOCC4)nc4ccccc34)nc2c1", "Potency": "inconclusive: 31.6 µM [inhibitor, partial curve]"},
      {"smiles": "COc1ccc(C(=O)N2CCC(N3C(=O)C(OC)C34CCOCC4)CC2)cn1", "note": "(centres undefined)", "activity change, negative = inhibition": "inactive: 34.2%"},
      {"smiles": "O=C(Nc1ccn(Cc2ccccc2F)n1)c1ccc(COc2cc(Cl)ccc2Cl)o1", "Potency": "inconclusive: 4.47 µM [inhibitor, full curve, poor fit]"},
      {"smiles": "COc1cc(NC(=O)COc2coc(CN3CCSCC3)cc2=O)cc(OC)c1", "activity change, negative = inhibition": "inactive: 17.8%"},
      {"smiles": "COc1ccccc1Cc1c(-c2ccc(F)cc2)nc2ccc(C)cn12", "Potency": "inconclusive: 35.5 µM [inhibitor, partial curve, poor fit]"},
      {"smiles": "O=C1CC(N2CCN(c3ccc(O)cc3)CC2)C(=O)N1Cc1cccs1", "note": "(centres undefined)", "Potency": "inconclusive: 35.5 µM [inhibitor, partial curve, poor fit]"},
      {"smiles": "Oc1c(CN2CCOCC2)ccc2ccccc12", "Potency": "active: 44.7 µM"},
      {"smiles": "Cc1c(-c2ccccc2)[n+](=O)c(-c2ccc(Br)cc2)c(C)n1[O-]", "Potency": "inconclusive: 0.282 µM [inhibitor, full curve, poor fit]"},
      {"smiles": "COc1cccc(N=c2oc3ccccc3cc2-c2nc3ccccc3[nH]2)c1", "Potency": "inconclusive: 0.282 µM [inhibitor, full curve, poor fit]"},
      {"smiles": "Cn1c(=O)c2cc(NC(=O)CCc3ccc(O)cc3)ccc2n1Cc1cccc(C(F)(F)F)c1", "Potency": "inconclusive: 44.7 µM [inhibitor, partial curve, poor fit]"},
      {"smiles": "COC(=O)CNC(=O)c1cc(-c2ccco2)nc2ccccc12", "Potency": "inconclusive: 12.6 µM [inhibitor, partial curve, poor fit]"},
      {"smiles": "COc1cccc(Nc2ncc3nc(-c4cccs4)c(=O)n(CCC#N)c3n2)c1", "Potency": "inconclusive: 28.2 µM [inhibitor, single point]"},
      {"smiles": "CCOc1ccc(NCc2ccccc2OCc2cccc(F)c2)cc1", "activity change, negative = inhibition": "inactive: -21.8%"},
      {"smiles": "CN1CCc2nc(SCC(=O)Nc3ccc(Cl)cc3)c(C#N)cc2C1", "Potency": "active: 5.62 µM"},
      {"smiles": "CN1CCN(c2oc(-c3ccc(COc4ccc(Cl)cc4)o3)nc2C#N)CC1", "Potency": "inconclusive: 100 µM [inhibitor, partial curve, poor fit]"},
      {"smiles": "O=C(COc1ccc(Nc2ccccc2)cc1)Nc1ccncc1", "activity change, negative = inhibition": "inactive: -0.835%"},
      {"smiles": "Cc1cccc(NC(=O)C2(C#N)C(c3ccccc3)C2(C)C(=O)c2ccccc2)c1", "note": "(centres undefined)", "Potency": "inconclusive: 126 µM [inhibitor, single point]"},
      {"smiles": "COc1ccc(-c2nc3ccccc3o2)cc1NC(=O)C(C)Oc1ccc(Cl)cc1Cl", "note": "(centres undefined)", "activity change, negative = inhibition": "inactive: -18.4%"},
      {"smiles": "Cc1ccc(C2=NN(C(=O)CNc3ccc(C(=O)N(C)C)cc3)C(c3ccco3)C2)cc1", "note": "(centres undefined)", "Potency": "inconclusive: 50.1 µM [inhibitor, partial curve, poor fit]"},
      {"smiles": "O=C(CN1CCN(c2ccc(O)cc2)CC1)Nc1ccc(SC(F)F)cc1", "Potency": "inconclusive: 89.1 µM [inhibitor, partial curve, poor fit]"},
      {"smiles": "Brc1ccc2nc(-c3ccc(CN4CCC(c5nc6ccccc6[nH]5)CC4)cc3)c(-c3ccccc3)nc2c1", "Potency": "inconclusive: 56.2 µM [inhibitor, partial curve, poor fit]"}
    ]}
  ]
}
